# Library screen at single concentrations

Chains of the proteins cited; added tags and fusions are not shown. Residues count along the entry.
UniProt P9WNZ1, whole entry: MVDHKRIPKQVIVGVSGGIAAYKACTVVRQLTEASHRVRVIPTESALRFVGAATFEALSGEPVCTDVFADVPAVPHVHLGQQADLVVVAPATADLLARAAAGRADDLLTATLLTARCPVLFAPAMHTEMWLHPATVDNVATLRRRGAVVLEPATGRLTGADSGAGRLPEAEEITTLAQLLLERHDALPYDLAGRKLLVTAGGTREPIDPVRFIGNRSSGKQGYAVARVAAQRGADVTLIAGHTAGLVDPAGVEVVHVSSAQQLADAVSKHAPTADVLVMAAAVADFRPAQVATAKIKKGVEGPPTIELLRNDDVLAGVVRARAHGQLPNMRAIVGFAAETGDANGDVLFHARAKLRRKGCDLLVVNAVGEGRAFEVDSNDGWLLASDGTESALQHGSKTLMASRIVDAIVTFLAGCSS
UniProt I6X8D2, whole entry: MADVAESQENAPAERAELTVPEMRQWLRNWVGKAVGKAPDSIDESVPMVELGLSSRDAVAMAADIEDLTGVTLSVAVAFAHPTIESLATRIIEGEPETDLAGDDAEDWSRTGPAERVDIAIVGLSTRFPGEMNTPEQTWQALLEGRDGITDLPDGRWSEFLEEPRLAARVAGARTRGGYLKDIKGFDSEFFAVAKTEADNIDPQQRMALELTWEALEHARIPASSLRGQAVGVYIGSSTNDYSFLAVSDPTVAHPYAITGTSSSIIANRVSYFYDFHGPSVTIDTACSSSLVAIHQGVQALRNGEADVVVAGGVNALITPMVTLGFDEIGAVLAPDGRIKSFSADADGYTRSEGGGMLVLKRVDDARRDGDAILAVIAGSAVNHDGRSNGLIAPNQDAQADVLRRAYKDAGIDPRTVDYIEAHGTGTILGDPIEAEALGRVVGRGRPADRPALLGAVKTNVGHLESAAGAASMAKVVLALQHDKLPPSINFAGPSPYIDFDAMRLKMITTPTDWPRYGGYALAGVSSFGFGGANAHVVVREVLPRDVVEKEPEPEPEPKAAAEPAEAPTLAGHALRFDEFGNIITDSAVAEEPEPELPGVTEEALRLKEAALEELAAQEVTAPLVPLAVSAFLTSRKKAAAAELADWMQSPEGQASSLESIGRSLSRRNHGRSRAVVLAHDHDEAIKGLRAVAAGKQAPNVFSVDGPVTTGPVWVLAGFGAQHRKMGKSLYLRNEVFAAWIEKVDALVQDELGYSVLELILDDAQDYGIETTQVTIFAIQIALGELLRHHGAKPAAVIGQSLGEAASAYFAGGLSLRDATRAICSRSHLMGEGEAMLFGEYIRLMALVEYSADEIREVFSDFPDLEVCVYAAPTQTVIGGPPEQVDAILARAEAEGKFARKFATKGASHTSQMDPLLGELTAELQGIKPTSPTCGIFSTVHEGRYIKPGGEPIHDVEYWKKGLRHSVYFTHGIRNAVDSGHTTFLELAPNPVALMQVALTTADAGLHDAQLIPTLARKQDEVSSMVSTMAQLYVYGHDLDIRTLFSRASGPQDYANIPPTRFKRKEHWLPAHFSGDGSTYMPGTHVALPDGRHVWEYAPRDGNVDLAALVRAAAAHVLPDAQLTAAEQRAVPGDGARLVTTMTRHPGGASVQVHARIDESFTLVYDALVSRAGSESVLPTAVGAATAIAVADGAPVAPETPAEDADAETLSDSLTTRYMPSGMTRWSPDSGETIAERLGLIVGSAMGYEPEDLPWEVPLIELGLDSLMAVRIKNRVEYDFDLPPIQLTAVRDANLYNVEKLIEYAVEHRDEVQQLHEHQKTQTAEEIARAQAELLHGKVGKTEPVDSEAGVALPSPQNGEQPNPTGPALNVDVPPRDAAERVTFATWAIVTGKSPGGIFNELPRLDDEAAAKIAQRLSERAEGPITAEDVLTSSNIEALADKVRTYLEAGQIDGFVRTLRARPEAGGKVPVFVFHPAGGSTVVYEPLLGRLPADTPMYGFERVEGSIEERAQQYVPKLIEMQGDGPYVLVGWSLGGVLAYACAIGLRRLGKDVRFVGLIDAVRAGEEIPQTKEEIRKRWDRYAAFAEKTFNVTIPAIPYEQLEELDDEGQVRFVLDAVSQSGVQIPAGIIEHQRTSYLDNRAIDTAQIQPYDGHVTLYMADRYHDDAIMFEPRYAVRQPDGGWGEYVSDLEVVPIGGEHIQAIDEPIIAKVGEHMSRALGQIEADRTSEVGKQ
UniProt P9WPC5, whole entry: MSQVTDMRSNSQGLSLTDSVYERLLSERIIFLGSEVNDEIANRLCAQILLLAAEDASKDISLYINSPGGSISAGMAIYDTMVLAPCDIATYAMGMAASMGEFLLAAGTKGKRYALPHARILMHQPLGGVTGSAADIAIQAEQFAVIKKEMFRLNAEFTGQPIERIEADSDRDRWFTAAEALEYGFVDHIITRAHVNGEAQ
UniProt P9WPC3, whole entry partner: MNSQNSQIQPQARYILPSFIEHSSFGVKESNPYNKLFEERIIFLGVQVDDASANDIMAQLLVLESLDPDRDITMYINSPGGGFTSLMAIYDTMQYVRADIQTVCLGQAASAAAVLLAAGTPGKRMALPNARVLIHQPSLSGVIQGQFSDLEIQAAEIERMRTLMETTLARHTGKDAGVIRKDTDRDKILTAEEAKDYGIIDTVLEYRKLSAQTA
UniProt A4I591, 1-473: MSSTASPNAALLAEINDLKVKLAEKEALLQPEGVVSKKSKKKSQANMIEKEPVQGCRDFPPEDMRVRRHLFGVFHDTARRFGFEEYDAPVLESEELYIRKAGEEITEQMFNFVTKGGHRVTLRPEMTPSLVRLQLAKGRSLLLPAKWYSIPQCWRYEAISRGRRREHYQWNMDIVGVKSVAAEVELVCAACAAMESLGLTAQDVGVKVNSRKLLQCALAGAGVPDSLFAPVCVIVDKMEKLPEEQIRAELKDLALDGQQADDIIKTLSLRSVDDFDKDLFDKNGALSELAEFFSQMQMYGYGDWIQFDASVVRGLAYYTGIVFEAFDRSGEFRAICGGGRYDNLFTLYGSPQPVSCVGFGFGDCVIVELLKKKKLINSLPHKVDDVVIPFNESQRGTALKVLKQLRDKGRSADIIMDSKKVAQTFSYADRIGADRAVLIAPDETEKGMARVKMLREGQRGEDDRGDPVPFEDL
UniProt P9WFT3, whole entry: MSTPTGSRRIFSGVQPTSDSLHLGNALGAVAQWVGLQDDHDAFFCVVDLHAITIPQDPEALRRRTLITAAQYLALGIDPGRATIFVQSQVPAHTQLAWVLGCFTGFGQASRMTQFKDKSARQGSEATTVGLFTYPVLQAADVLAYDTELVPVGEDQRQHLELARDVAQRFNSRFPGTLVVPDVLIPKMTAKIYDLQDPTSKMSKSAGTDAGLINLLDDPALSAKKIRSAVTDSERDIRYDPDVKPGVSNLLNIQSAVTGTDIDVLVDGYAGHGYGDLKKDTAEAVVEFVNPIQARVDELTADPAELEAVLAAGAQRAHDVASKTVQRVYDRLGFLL

CoaBC: 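Enzyme assay of CoaBC with a phosphate dye (Biomol Green) read at 650 nm. Target: Coenzyme A biosynthesis protein CoaBC, Mycobacterium tuberculosis (UniProt P9WNZ1). Tested at 30 µM. Higher reads as stronger inhibition, judged from the few compounds that gave an IC50. Most strong results did not repeat in a second test. Of about 67,000 compounds tested this way, about 40 (0.06%) reached 50% or more in at least one test.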
Pks13 thioesterase: 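Enzyme assay of the thioesterase domain of polyketide synthase 13; the read-out is not stated. Target: Polyketide synthase Pks13, Mycobacterium tuberculosis (UniProt I6X8D2). Concentration: 30 µM. Higher reads as stronger inhibition (inferred from which compounds were picked for retests). About 67,000 compounds were tested under these conditions; 0.46% (about 300) showed 50% or more at least once.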
ClpP1P2: 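Protease assay of ClpP1P2, read by the AMC dye that it sets free. Target: ClpP1P2, Mycobacterium tuberculosis (UniProt P9WPC5 and UniProt P9WPC3). Concentration: 50 µM. Direction is inferred from only a few compounds that gave an IC50; most scored high, so higher reads as stronger inhibition. Most other retested compounds had strongly negative values. Size under these conditions: about 69,000 compounds, about 10 of them at 50% or above in at least one test.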
Toxoplasma: 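Assay of Toxoplasma gondii numbers, read through their beta-galactosidase reporter with a colour substrate. Concentration: 10 µM. Higher reads as fewer parasites (inferred from which compounds were picked for retests). Size under these conditions: about 67,000 compounds, about 260 of them at 50% or above in at least one test.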
LiHisRS: 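Histidine-tRNA ligase, Leishmania infantum (UniProt A4I591). Enzyme assay of histidyl-tRNA synthetase; the read-out is not stated. Tested at 30 µM. Higher reads as stronger inhibition (inferred: compounds with an IC50 in retests scored well above the rest). The assay is labelled LdHisRS but filed under L. infantum. Size under these conditions: about 69,000 compounds, about 410 of them at 50% or above in at least one test.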
MtTrpRS: 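Enzyme assay of tryptophanyl-tRNA synthetase; the read-out is not stated. Target: Tryptophan-tRNA ligase, Mycobacterium tuberculosis (UniProt P9WFT3). Tested at 10 µM. Direction is not recorded; retested compounds ran higher, which suggests that high means inhibition. About 65,000 compounds were tested under these conditions; 0.098% (about 64) showed 50% or more at least once.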

The filed quantity is “Percent Effect” (%).
The controls that fix the scale are not given in the record; negative values are as filed.
Compounds were drawn at random from those tested, without regard to their results.
A dash means the value is not listed here; it may have been measured.

| structure | CoaBC | Pks13 thioesterase | ClpP1P2 | Toxoplasma | LiHisRS | MtTrpRS |
|---|---|---|---|---|---|---|
| `Cc1ccc(C(=O)N2CCCC(c3cc(C(F)(F)F)[nH]n3)C2)o1` (centres unmarked) | 4.847 | -12.71 | -9.8 | -10.05 | 10.91 | -1.004 |
| `O=C(O)C(F)(F)F.O=C(O)C(F)(F)F.O=C(O)C(F)(F)F.c1cncc(CN2CCC3(CC2)CC(c2cccnc2)CO3)c1` (centres unmarked) | - | - | - | 9.58 | - | - |
| `Cc1cccc2c(CCNC(=O)[C@H](N)c3ccccc3)c[nH]c12` | -6.41 | -39.67 | -12.07 | 7.346 | 8.547 | -1.927 |
| `c1ccc(Cn2ccnc2CN2CCOC(Cn3cccn3)C2)cc1` (centres unmarked) | 3.655 | -11.76 | 3.904 | 1.519 | 18.92 | -0.8772 |
| `CCc1nc(CN(C)C2CCCN(c3cccnn3)C2)no1` (centres unmarked) | -4 | -11.1 | 14.61 | -10.6 | 15.65 | 10.32 |
| `Nc1cnc(-c2ccc(F)cc2Cl)cn1` | 16.78 | - | -10.48 | -2.648 | 3.509 | 17.48 |
| `Cc1ccc(C(C)N(C)Cc2nc3c(cnn3C)c(=O)[nH]2)s1` (centres unmarked) | 5.604 | -53.3 | -31.73 | -7.033 | 11.01 | 0.5805 |
| `COc1cccc(C(C)N2CCN(S(=O)(=O)c3ccccc3)CC2)c1` (centres unmarked) | - | - | 4.166 | -3.991 | -12.68 | -2.725 |
| `O=C(CN1CCCCC1)Nc1cc(C(F)(F)F)ccc1-n1cccc1` | -1.151 | -7.466 | -17.75 | -8.381 | 6.25 | -9.149 |
| `c1cnc(N2CCO[C@H]3[C@H](OCC4CC4)CC[C@@H]32)nc1` | 2.228 | - | -12.31 | - | 8.108 | - |
| `Cc1noc(C)c1CNC(=O)N(C)C1CCN(c2ccccc2)C1=O` (centres unmarked) | 2.302 | -24.07 | -22.7 | -37.14 | 14.68 | -6.552 |
| `O=C(O)C(F)(F)F.[H][C@@]12CCN(c3ccc(C)nn3)C[C@]1([H])O[C@@H](C(=O)NCc1ccco1)C2` | - | - | - | 14.83 | - | - |
| `O=C(c1ccc(C2CCCO2)s1)N1Cc2ccccc2C1` (centres unmarked) | -2.772 | -7.213 | -25.96 | -0.9233 | 17.31 | -11.38 |
| `CCCOc1ccccc1CN[C@@H]1CCC[C@H]1Cc1cc(C)no1` | -0.2427 | -0.2695 | -11.35 | - | 33.33 | - |
| `O=C(O)C(F)(F)F.O=C(O)C(F)(F)F.c1cncc(CN2CCCn3nnc(COCC4CC4)c3C2)c1` | - | - | - | 0.1012 | - | - |
| `O=C(CC1C=CCC1)Nc1ncn(CC(=O)N2CCCCCC2)n1` (centres unmarked) | -0.2558 | -14.35 | -17.28 | -41.94 | 3.67 | -5.512 |
| `CCc1n[nH]c(C2CN(C(=O)c3cnc(C)nc3CC)CCO2)n1` (centres unmarked) | 0.2389 | -20.4 | 7.684 | 11.76 | 11.54 | -0.7252 |
| `COCCCN1CCN(CCOC)C(C)C1` (centres unmarked) | 5.102 | -26.15 | -7.995 | 1.244 | 18.18 | -0.8855 |
| `CN1C(=O)C2(CC(=O)Nc3c2cnn3C(C)(C)C)c2c(Cl)cccc21` (centres unmarked) | 2.152 | -1.102 | -22.12 | -2.622 | -12.5 | -1.356 |
| `CCCNC(=O)c1cc(-c2cnc(N3CCCC3)nc2)cn1C` | 2.75 | -7.42 | 10.23 | 59.81 | 16 | 1.72 |
| `Cc1ccc(-c2nc(CN(Cc3cccs3)CC3CCCO3)no2)cc1` (centres unmarked) | 3.69 | 8.961 | -4.783 | -16.72 | 16.52 | -6.518 |
| `CCc1nc(CNCCn2cc(C)cn2)no1` | 0.7653 | 0.2107 | -22.59 | 2.01 | 16.36 | -7.615 |
| `O=C(c1ccccc1)N1CC2(CCNC2)OCc2ccccc21` (centres unmarked) | 2.105 | -10.44 | -0.8167 | 11.09 | 13.79 | -2.334 |
| `O=C(Cc1ccccn1)N1CC[C@]2(C[C@@H](Oc3ncccc3F)CO2)C1` | 4.562 | 1.145 | -3.265 | - | 22.58 | -2.553 |
| `Cc1cccc(C2(CNC(=O)c3ccnc(N(C)C)c3)CCOCC2)c1` | -4.116 | 1.816 | -2.796 | -31.5 | 11.19 | 15.08 |
| `COC[C@H]1CNC(=O)[C@@H]2CCN(Cc3cccc(C)n3)CC[C@H]12` | 4.886 | -29.85 | -1.669 | - | 28.57 | -1.139 |
| `O=C(O)C(F)(F)F.O=C(O)C(F)(F)F.O=C(O)C(F)(F)F.[H][C@@]12CCCO[C@]1([H])[C@H](OCc1ccccn1)CN2Cc1scnc1C` | - | - | - | 0.1394 | - | - |
| `CCS(=O)(=O)Nc1ccc2oc(C)c(C(C)=O)c2c1` | 3.03 | -33.03 | 4.316 | 0.5483 | 19.35 | 8.417 |

Repeated from the top, 2 entries:

{"structure": "Cc1ccc(C(=O)N2CCCC(c3cc(C(F)(F)F)[nH]n3)C2)o1", "stereo": "centres unmarked", "CoaBC": 4.847, "Pks13 thioesterase": -12.71, "ClpP1P2": -9.8, "Toxoplasma": -10.05, "LiHisRS": 10.91, "MtTrpRS": -1.004}
{"structure": "O=C(O)C(F)(F)F.O=C(O)C(F)(F)F.O=C(O)C(F)(F)F.c1cncc(CN2CCC3(CC2)CC(c2cccnc2)CO3)c1", "stereo": "centres unmarked", "Toxoplasma": 9.58}

Data taken from ChEMBL document CHEMBL3988442, “University of Dundee, Small-Polar-MMV Screening Library” (2021).